US20200377599A1, “COMPOSITIONS AND METHODS FOR TREATING CANCER” (BETH ISRAEL DEACONESS MEDICAL CENTER, INC., priority 2017, published 2020)
Results are given in words; binding and its absence hold for the method and conditions named. Binding seen in cells or lysates may run through a third protein. Some results given as binding are weak or reduced against the parent protein; the word gives no strength.

Chains of the proteins cited; added tags and fusions are not shown. Lines headed by an entry give the natural chain unless they say otherwise; changes in a name come on top. Residues count along the entry.
UniProt Q9NZQ7, residues 19-290: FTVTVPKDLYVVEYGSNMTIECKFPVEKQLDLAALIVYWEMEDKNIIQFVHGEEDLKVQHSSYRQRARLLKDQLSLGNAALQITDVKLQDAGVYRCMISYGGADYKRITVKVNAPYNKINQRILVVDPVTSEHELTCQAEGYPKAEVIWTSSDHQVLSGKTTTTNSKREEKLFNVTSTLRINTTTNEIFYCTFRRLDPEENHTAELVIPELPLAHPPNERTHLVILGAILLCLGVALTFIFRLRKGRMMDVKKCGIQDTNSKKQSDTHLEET
UniProt O43791: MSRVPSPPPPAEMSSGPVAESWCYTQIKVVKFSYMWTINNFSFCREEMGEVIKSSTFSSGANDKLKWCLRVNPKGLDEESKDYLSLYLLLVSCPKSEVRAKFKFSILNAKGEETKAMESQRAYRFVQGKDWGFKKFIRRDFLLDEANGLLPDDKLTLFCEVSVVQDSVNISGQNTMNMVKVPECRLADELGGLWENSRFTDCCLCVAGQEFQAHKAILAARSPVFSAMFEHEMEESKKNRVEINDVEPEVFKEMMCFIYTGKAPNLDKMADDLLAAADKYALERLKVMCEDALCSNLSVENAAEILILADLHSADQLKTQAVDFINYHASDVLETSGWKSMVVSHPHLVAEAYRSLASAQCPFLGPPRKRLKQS
UniProt Q9Y297: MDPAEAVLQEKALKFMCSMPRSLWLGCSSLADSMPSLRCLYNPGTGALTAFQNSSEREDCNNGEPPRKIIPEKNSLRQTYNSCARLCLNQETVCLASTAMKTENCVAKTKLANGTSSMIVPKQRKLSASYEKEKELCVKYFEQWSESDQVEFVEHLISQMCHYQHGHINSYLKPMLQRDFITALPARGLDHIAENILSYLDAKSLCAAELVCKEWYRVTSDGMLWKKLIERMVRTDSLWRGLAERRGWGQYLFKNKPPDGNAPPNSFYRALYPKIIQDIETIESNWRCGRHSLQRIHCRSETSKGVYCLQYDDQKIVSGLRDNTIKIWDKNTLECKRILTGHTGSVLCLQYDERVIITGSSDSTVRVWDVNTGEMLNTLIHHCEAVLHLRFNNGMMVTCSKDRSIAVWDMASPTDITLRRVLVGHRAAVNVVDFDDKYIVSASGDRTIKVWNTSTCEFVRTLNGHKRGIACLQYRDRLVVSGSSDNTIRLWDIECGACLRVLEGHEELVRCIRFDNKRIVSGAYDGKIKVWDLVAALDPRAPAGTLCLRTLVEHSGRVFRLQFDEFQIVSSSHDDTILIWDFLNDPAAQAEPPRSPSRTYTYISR
UniProt Q12834: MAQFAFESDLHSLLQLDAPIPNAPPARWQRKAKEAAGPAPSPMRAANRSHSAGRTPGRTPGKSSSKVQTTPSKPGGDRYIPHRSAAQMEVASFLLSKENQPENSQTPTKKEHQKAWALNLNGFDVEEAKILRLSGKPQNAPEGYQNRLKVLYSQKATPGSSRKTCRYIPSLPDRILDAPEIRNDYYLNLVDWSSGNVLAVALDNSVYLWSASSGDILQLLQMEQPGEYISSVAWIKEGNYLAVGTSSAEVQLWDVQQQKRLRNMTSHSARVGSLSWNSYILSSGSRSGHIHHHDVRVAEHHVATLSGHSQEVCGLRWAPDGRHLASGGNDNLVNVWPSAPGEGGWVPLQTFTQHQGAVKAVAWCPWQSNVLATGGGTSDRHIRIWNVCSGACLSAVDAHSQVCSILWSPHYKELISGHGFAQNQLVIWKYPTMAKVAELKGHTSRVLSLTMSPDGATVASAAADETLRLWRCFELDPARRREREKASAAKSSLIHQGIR
UniProt Q9UM11: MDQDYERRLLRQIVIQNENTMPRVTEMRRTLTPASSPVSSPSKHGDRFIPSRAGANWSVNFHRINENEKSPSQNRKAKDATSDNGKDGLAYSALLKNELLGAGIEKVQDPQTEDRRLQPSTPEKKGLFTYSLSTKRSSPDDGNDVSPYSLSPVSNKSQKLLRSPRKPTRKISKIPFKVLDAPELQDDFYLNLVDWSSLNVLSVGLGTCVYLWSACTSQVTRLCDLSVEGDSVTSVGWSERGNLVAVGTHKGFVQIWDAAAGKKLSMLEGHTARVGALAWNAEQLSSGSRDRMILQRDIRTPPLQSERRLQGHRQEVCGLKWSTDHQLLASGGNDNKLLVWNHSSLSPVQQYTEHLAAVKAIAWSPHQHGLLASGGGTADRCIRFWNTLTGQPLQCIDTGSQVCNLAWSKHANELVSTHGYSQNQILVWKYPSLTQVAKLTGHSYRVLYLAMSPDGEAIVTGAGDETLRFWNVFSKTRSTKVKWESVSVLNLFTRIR

Tests used:
[1] = target: T1, PD-L1 (human, UniProt Q9NZQ7 19-290, limits assumed); experiment: GST pull-down and co-immunoprecipitation (FIG. 8)
T1 construct: also called HA-PD-L1; PD-L1 WT

[2] = target: T1, PD-L1; experiment: co-immunoprecipitation, transfected 293T cells (FIG. 3D) and PC3 cells (FIG. 3E)
[3] = target: T1, PD-L1; experiment: co-immunoprecipitation from transfected 293T cells (FIG. 8G)
[4] = target: T1, PD-L1; experiment: co-immunoprecipitation in cells
[5] = target: T1, PD-L1; experiment: co-immunoprecipitation from transfected 293T cells (FIG. 8F)
[6] = target: T2, SPOP-S6A mutant (UniProt O43791 1-374); experiment: co-immunoprecipitation from transfected 293T cells (FIG. 13J)
T2 construct: also called Flag-SPOP S6A; phosphorylation-deficient S6A mutant of SPOP

[7] = target: SPOP (UniProt O43791); experiment: co-immunoprecipitation from transfected 293T cells (FIG. 12B)
[8] = target: T2, SPOP-S6A mutant; experiment: co-immunoprecipitation from transfected 293T cells (FIG. 13K)
[9] = target: SPOP (UniProt O43791); experiment: co-immunoprecipitation (FIG. 4)
[10] = target: SPOP (UniProt O43791); experiment: co-immunoprecipitation from 293T cells with or without palbociclib (FIG. 4I)
[11] = target: SPOP (UniProt O43791); experiment: co-immunoprecipitation of endogenous proteins, MDA-MB-231 (FIG. 4B) and HeLa cells (FIG. 12E)
[12] = substrate: SPOP (UniProt O43791); experiment: co-immunoprecipitation and pull-down (FIG. 13)
[13] = substrate: SPOP (UniProt O43791); experiment: co-immunoprecipitation from transfected 293T cells (FIG. 4G)
[14] = substrate: SPOP (UniProt O43791); experiment: GST pull-down from transfected 293T cells (FIG. 13G)
[15] = substrate: SPOP (UniProt O43791); experiment: co-immunoprecipitation (FIG. 4); remark: listed apart in the source
[16] = substrate: SPOP (UniProt O43791); experiment: co-immunoprecipitation from 293T cells with or without palbociclib (FIG. 4I); remark: listed apart in the source

How did the binding [1] turn out when SPOP (from UniProt O43791 1-374) was run?
The binding was “binds”.

What about the binding [2] of the same molecule?
Its binding is “binds”.

What about the binding [3] of the same molecule?
Its binding is “binds”.

What about the binding [4] of the same molecule?
The binding was “binds”.

How did the binding [5] turn out when β-TRCP (from UniProt Q9Y297 1-605) was run?
The binding was “binds”.

For “SPOP-S6A mutant (from UniProt O43791 1-374)”, which binding [6] is on record?
Its binding is “binds”.

With Cdc20 (from UniProt Q12834 1-499) as the molecule, how does the binding [7] read?
The binding was “binds”.

With Cdh1 (from UniProt Q9UM11 1-496) as the molecule, how does the binding [8] read?
The binding was “binds”.

And the binding [9]?
The binding was “binds”.

What about the binding [10] of the same molecule?
The binding was “binds”.

What about the binding [7] of the same molecule?
Its binding is “binds”.

And the binding [11]?
Its binding is “binds”.

B1: 14-3-3γ (other, UniProt P61981 1-247, looked up)
chain: MVDREQLVQKARLAEQAERYDDMAAAMKNVTELNEPLSNEERNLLSVAYKNVVGARRSSWRVISSIEQKTSADGNEKKIEMVRAYREKIEKELEAVCQDVLSLLDNYLIKNCSETQYESKVFYLKMKGDYYRYLAEVATGEKRATVVESSEKAYSEAHEISKEHMQPTHPIRLGLALNYSVFYYEIQNAPEQACHLAKTAFDDAIAELDTLNEDSYKDSTLIMQLLRDNLTLWTSDQQDDDGGEGNN
notes: One of the HA-14-3-3 isoform constructs; also called HA-14-3-3γ
B1 was tested. Which binding [12] did it give?
Its binding is “binds”.

What about the binding [13] of the same molecule?
Its binding is “binds”.

And the binding [14]?
The binding was “binds”.

What about the binding [15] of the same molecule?
The binding was “binds”.

And the binding [16]?
The binding was “binds”.
